Data on 61 molecules can be found in PubChem BioAssay AID445 (National Center for Advancing Translational Sciences (NCATS), 2006).

The nature of the experiment: IkB Signaling. The following applies: ABC-DLBCL IkBa-CBG/CBR dual luciferase ratio (green luciferase fused to IkBa over red control in OCI-Ly3 lymphoma cells), 4 h. The gist of the method: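 In this assay, an IκBα–CBG68 fusion accumulates when IKK-driven degradation is blocked; native CBR normalizes for cell number. OCI-Ly3 cells were treated 4 h with compound and doxycycline, then green and red light read after Chroma-Glo addition.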
The mark [1] stands for this setting: measured here: control luc red channel unless noted.
Setting [2] is: measured here: IkB-luc green channel.
The mark [3] stands for this setting: measured here: control luc red channel.

Structures are written as SMILES. This is one part of the list. These are further read-outs of the screen, such as a control signal, another cell line or another target. No call is given for them. Most of these compounds were active or inconclusive in the main read-out, so they are no random draw. Words in brackets tell the shape of the fitted curve; partial curves, single points and poor fits give uncertain potencies.

For the molecule `COc1ccc(-c2onc(C)c2C)cc1S(=O)(=O)N1CCC(C)CC1`, the AC50 under setting [1] is 39.8 µM [falling, single point].

Consider `COc1ccccc1CCNC(=O)c1cccn1-c1nnc(N2CCCCC2)s1`, for which the concentration at half-maximal activity (AC50) under setting [1] was 25.1 µM [falling, single point].

In the case of `CCOc1ccccc1NC(=O)CSc1cc(=O)n(CC)c2ccccc12`, under setting [1], the concentration at half-maximal activity (AC50) is 39.8 µM [falling, single point].

Turning to `O=c1n(CC2CO2)c(=O)n(CC2CO2)c(=O)n1CC1CO1` (stereo not drawn), under setting [1], the AC50 was 31.6 µM [rising, partial curve] [measured here: IkB-luc green channel].

Turning to `Cc1cccc2sc(N3CCN(C(=O)c4ccco4)CC3)nc12`, the AC50 under setting [1] is 3.16 µM [rising, partial curve].

For the molecule `FC(F)(F)c1cc(CO[C@H]2CCCN[C@H]2c2ccccc2)cc(C(F)(F)F)c1`, the AC50 under setting [1] is 39.8 µM [falling, partial curve].

On to `Cc1cc(NC(=O)C2CCCN(S(=O)(=O)c3cccc4nonc34)C2)ccc1Br` (stereo not drawn), for which the AC50 under setting [1] was 39.8 µM [falling, single point].

Regarding `COc1ccc(OC)c(CNCc2c(C(=O)O)n(Cc3ccccc3)c3cc(OC)ccc23)c1`, the AC50 under setting [1] was 10 µM [falling, partial curve].

In the case of `COc1ccc2nc(NC(=O)c3cnccn3)sc2c1`, under setting [1], the concentration at half-maximal activity (AC50) is 2.51 µM [falling, full curve].

As to `O=C1Nc2ccccc2Oc2cc(Oc3ccc(Cl)cc3)ccc21`, the AC50 under setting [1] was 0.631 µM [falling, full curve, poor fit].

For `CCC(=O)N1CCc2cc(S(=O)(=O)NC(CC(C)C)C(=O)Nc3ccc(CC)cc3)ccc21` (stereo not drawn), under setting [1], the AC50 is 15.8 µM [falling, partial curve].

As for `CCOC(=O)c1ccc(NC(=O)C2CCCN(c3ncnc4onc(C)c34)C2)cc1` (stereo not drawn), the AC50 under setting [1] was 39.8 µM [falling, single point].

Take `COc1cccc(-c2nc(CS(=O)CC(=O)NCc3ccc4c(c3)OCO4)c(C)o2)c1` (stereo not drawn): the AC50 under setting [1] is 12.6 µM [falling, partial curve].

For the molecule `COc1ccc(NC(=O)N2CCN(c3nc(-c4cccc(OC)c4)cs3)CC2)cc1`, the AC50 is 31.6 µM [falling, partial curve] under setting [2] and 15.8 µM [falling, partial curve] under setting [3].

With `CCc1ccc(-c2nc(SCC(=O)NCCOC)c(-c3ccc(C)cc3)[nH]2)cc1`, under setting [1], the AC50 is 20 µM [falling, partial curve, poor fit].

For `CCc1ccc(CNc2nc3nc(C)c(Cc4ccccc4)c(=O)n3[nH]2)cc1`, the AC50 under setting [1] is 20 µM [falling, single point].

Take `CCc1ccc(CN2CCc3nc(Nc4ccc5c(c4)OCCO5)ncc3C2)cc1`: under setting [1], the half-maximal activity concentration (AC50) was 25.1 µM [falling, single point].

`CC(=O)c1cccc(NC(=O)C2=CC(c3ccco3)=NS(=O)(=O)N2C)c1`: the AC50 under setting [1] was 25.1 µM [falling, single point].

For the molecule `COc1ccc(Nc2nnc(-c3ccc(C)c(S(N)(=O)=O)c3)c3ccccc23)cc1`, under setting [1], the AC50 was 10 µM [falling, partial curve].

For the molecule `COc1ccc(CCNc2oc(COc3ccc(Cl)cc3)nc2C#N)cc1OC`, the AC50 under setting [1] was 12.6 µM [falling, partial curve].

With `CCc1ccc2nc(N3CCN(C(=O)c4ccco4)CC3)sc2c1`, the AC50 under setting [1] was 2 µM [rising, partial curve].

As to `COc1ccc(Cl)cc1N(C)C(=O)Cn1cnc2sc(C)c(S(=O)(=O)N3CCN(c4ncccn4)CC3)c2c1=O`, under setting [1], the AC50 was 25.1 µM [falling, partial curve, poor fit].

Take `Cc1ccc(C)c(CN2C(=O)c3ccccc3S(=O)(=O)c3ccc(C(=O)N4CCOCC4)cc32)c1`: the half-maximal activity concentration (AC50) under setting [1] was 0.631 µM [falling, full curve].

For the molecule `CCC(=O)c1cc(F)c(N2CCN(C(=O)Cc3ccccc3)CC2)cc1C`, the AC50 under setting [1] is 12.6 µM [falling, partial curve].

Turning to `Cn1c(=O)c2c(nc(NC3CCCCC3)n2Cc2ccccc2)n(C)c1=O`, the AC50 under setting [1] was 12.6 µM [falling, partial curve].

Take `CCOc1ccccc1CNC(=O)CCCN1C(=O)CCn2nc(-c3cccn3C)cc21`: under setting [1], the AC50 is 39.8 µM [falling, single point].

On to `Cc1ccc(CNC(=O)C2CCN(S(=O)(=O)c3ccc4c(c3)oc(=O)n4C)CC2)cc1`, for which, under setting [1], the AC50 is 3.16 µM [falling, partial curve, poor fit].

On to `COc1ccccc1C1=Nn2c(nnc2C2CCCCC2)SC1`, for which, under setting [1], the AC50 was 15.8 µM [falling, partial curve].

Regarding `Cn1c2ccccc2c2ncn(CCC3=CCCCC3)c(=O)c21`, under setting [1], the AC50 is 25.1 µM [falling, single point].

Consider `CCOC(=O)c1c(C)[nH]c(C)c1S(=O)(=O)N1CCCC(C(=O)N2CCN(c3cc(C)ccc3C)CC2)C1` (stereo not drawn), for which the AC50 under setting [1] was 3.16 µM [falling, single point].

Regarding `CCCCNC(=O)C(CC)Sc1nnc(-c2ccc(OC)c(OC)c2)c(-c2ccc(OC)c(OC)c2)n1` (stereo not drawn), the AC50 under setting [1] is 2 µM [rising, partial curve].

Consider `Cc1ccc(-c2ccc(=O)n(C(C)C(=O)Nc3ccccc3Cl)n2)cc1C` (stereo not drawn), for which the concentration at half-maximal activity (AC50) under setting [1] is 39.8 µM [falling, single point].

In the case of `CC1CCc2nc3ncn(CC(=O)Nc4cccc(C#N)c4)c(=O)c3cc2C1` (stereo not drawn), the concentration at half-maximal activity (AC50) under setting [1] was 0.0631 µM [falling, full curve, poor fit].

In the case of `COc1ccc(S(=O)(=O)N(CC(=O)N2CCC(C)CC2)c2ccc(C)cc2)cc1`, the AC50 under setting [1] was 31.6 µM [falling, single point].

On to `CCOC(=O)Cc1csc(NC(=O)COc2ccccc2OC)n1`, for which the AC50 under setting [1] is 12.6 µM [falling, partial curve].

With `CCc1ccccc1Nc1nn2c(=O)c3ccc(C(=O)Nc4cc(C)cc(C)c4)cc3nc2s1`, under setting [1], the AC50 was 39.8 µM [falling, single point].

In the case of `Cc1occc1-c1nnc(SCC(=O)NCCc2ccccc2)n1Cc1ccccc1`, under setting [1], the AC50 was 31.6 µM [falling, single point].

Consider `CCOC(=O)c1cccc(NC(=O)CCCn2c(C)c3cnn(-c4ccccc4)c(=O)c3c2C)c1`, for which, under setting [1], the AC50 is 25.1 µM [falling, partial curve].

Regarding `COc1cc(C2CC(=O)Nc3c2c(=O)n(C)c(=O)n3C)cc(OC)c1OC` (stereo not drawn), the AC50 under setting [1] is 31.6 µM [rising, single point].

Turning to `CCCCn1c(CNC(=O)c2ccc(OC)cc2)nnc1SCC(=O)Nc1ccccc1`, the AC50 under setting [1] was 25.1 µM [falling, single point].

Take `CC(=O)N1CCN(S(=O)(=O)c2cccc(C(=O)Nc3nc4ccccc4[nH]3)c2)CC1`: the AC50 under setting [1] is 31.6 µM [falling, partial curve].

For `Cc1ccc(CNC(=O)CCC(=O)N2CC(C)Sc3ccccc32)cc1` (stereo not drawn), under setting [1], the AC50 was 15.8 µM [falling, single point].

`Cc1ccc(NC(=O)c2cc3c(=O)[nH]c4ccccc4c3n2C)cc1F`: the AC50 under setting [1] is 5.01 µM [rising, partial curve].

Regarding `S=c1nc2ccccc2c2nc(-c3ccccc3)[nH]n12`, the AC50 was 10 µM [rising, partial curve] under setting [2] and 25.1 µM [falling, single point] under setting [3].

In the case of `CC(C)N(C(=O)Cn1cc(S(=O)(=O)Cc2ccc(C(F)(F)F)cc2)c2ccccc21)C(C)C`, the AC50 under setting [1] is 31.6 µM [falling, single point].

For `CCC(=O)O[C@@]1(C(=O)SCF)[C@@H](C)C[C@H]2[C@@H]3C[C@@H](F)C4=CC(=O)C=C[C@@]4(C)[C@]3(F)[C@@H](O)C[C@]21C`, the AC50 under setting [1] is 158 nM [rising, full curve] [measured here: IkB-luc green channel].

With `COc1ccc2c(Sc3ccc(Cl)cc3)c(C(=O)NCCCN3CCCCC3)[nH]c2c1`, the AC50 under setting [1] was 12.6 µM [falling, partial curve].

For the molecule `Cc1cccc(NC(=O)CSc2nc3c([nH]c4ccccc43)c(=O)n2C)c1`, the AC50 under setting [1] was 0.251 µM [falling, full curve].

Consider `Cc1ccc(CN(C(=O)COc2ccc(C)c(C)c2)C2CCS(=O)(=O)C2)o1` (stereo not drawn), for which, under setting [1], the AC50 is 20 µM [falling, partial curve].

Consider `COc1ccc(S(=O)(=O)Nc2cc(-c3cn4ccccc4n3)ccc2C)cc1`, for which the concentration at half-maximal activity (AC50) under setting [1] was 0.2 µM [rising, full curve].

Turning to `COc1ccc(OCc2nnc(-c3ccccc3)o2)cc1`, the AC50 under setting [1] was 0.0398 µM [rising, full curve, poor fit].

As to `Cc1nn(C)c2c1c(C(F)(F)F)cc(=O)n2CC(=O)NCc1ccccc1Cl`, the AC50 under setting [1] is 15.8 µM [falling, single point].

As to `Cc1cc(F)ccc1NC(=O)c1sc2nc(-c3cccs3)ccc2c1N`, under setting [1], the AC50 was 5.01 µM [falling, full curve].

With `CCOc1ccccc1NC(=O)C(C)Sc1nc2c(c(=O)[nH]1)CCCC2` (stereo not drawn), under setting [1], the AC50 is 12.6 µM [falling, single point].

Take `CC(C)OCCCN1C(=O)c2[nH]nc(-c3ccccc3O)c2C1c1ccc(OCc2ccccc2)cc1` (stereo not drawn): the AC50 under setting [1] is 15.8 µM [falling, partial curve].

As for `Cc1ccc(CC(=O)Nc2c(C(=O)N3CCN(c4ccccc4F)CC3)oc3ccccc23)cc1`, the half-maximal activity concentration (AC50) under setting [1] was 25.1 µM [falling, single point].

For `Cc1ccc(NS(=O)(=O)c2ccc3c(c2)NC(=O)CCS3)c(Br)c1`, under setting [1], the half-maximal activity concentration (AC50) is 3.16 µM [falling, single point].

`CCOCCCNC(=O)CCc1nnc2ccc(N3CCN(c4cccc(OC)c4)CC3)nn12`: the AC50 under setting [1] was 25.1 µM [falling, partial curve, poor fit].

With `CCn1nc(-c2ccccc2)c(-c2ccccc2)c(C(=O)OCCOC)c1=O`, the half-maximal activity concentration (AC50) under setting [1] was 0.2 µM [rising, partial curve].

Regarding `Cc1oc(-c2ccccc2)nc1CNC(=O)Nc1ccccc1`, the AC50 under setting [1] was 31.6 µM [falling, single point].

As to `CC1=C(C(=O)OCC2CCCCC2)C(c2c(F)cccc2Cl)CC(=O)N1` (stereo not drawn), under setting [1], the concentration at half-maximal activity (AC50) was 3.16 µM [falling, partial curve, poor fit].

In general, AC50 refers to the concentration giving half of the maximal activity seen.
